No constants are given. Whether binding was seen depends on the method and setting. For some of these results: Binding can be weak; no strength is given. For some of these results: Sequences can lack the tags named with a protein. For some of these results: In cells and extracts the contact can be indirect.

Assay [1] addresses T1, Nse5-3C-His(8) (S. cerevisiae) (UniProt Q03718).
T1 sequence: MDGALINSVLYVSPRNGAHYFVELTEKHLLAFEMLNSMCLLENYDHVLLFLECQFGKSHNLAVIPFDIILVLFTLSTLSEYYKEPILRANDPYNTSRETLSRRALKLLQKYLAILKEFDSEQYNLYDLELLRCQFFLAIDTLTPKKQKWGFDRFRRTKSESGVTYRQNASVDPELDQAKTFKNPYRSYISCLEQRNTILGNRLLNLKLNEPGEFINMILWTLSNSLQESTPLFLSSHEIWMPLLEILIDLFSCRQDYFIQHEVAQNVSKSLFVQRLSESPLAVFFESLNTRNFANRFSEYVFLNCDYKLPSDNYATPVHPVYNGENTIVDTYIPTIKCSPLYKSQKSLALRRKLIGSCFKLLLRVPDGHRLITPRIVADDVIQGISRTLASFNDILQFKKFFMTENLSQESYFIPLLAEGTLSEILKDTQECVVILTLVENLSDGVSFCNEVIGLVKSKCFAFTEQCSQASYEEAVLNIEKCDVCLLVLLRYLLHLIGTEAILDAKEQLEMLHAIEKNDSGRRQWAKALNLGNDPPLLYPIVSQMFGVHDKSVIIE
The experiment in a line: co-purification; Nse6 and Nse5 co-expressed in E. coli from a bicistronic construct; captured by the His-tag on Nse5 (HisTrap), then heparin and gel filtration.

Assay [2] has as its target T2, Nse5-AviTag (from Nse5-AviTag-3C-Twin-Strep, Twin-Strep removed) (S. cerevisiae) (UniProt Q03718).
T2 sequence: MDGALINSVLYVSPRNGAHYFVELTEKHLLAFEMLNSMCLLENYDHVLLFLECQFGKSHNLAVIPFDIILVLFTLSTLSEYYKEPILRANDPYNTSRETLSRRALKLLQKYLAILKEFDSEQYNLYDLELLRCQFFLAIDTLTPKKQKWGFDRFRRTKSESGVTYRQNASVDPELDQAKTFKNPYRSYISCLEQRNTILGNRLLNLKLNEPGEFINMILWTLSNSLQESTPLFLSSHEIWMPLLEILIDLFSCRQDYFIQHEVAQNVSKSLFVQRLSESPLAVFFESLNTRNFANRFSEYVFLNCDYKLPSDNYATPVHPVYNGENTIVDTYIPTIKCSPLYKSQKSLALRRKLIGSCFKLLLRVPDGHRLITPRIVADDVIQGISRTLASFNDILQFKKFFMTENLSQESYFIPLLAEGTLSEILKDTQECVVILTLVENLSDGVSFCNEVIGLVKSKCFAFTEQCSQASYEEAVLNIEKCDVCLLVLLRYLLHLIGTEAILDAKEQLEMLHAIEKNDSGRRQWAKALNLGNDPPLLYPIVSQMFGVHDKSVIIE
In words: cross-linking; XL-MS with PhoX (0.25 mM, 20 min, RT) on the octamer, 1.6 µM; ATPase buffer (10 mM Hepes-KOH pH 7.5, 150 mM potassium acetate, 2 mM MgCl2, 20% glycerol); without and with 2 mM ATP and 16 nM plasmid DNA; wild-type and Smc5(EQ)/Smc6(EQ) octamers; both purified.

The target in assay [3] is Nse6(H368C) (S. cerevisiae). In words: cross-linking; BMOE (30 s) on the purified Nse5/6 complex with the cysteine pair Nse6 H368C / Nse5 G56C; SDS-PAGE; both purified.
In assay [4] the target is Nse6(1-179)-CPD-His (S. cerevisiae). The experiment in a line: co-purification; bicistronic co-expression with Nse5 in E. coli; purified by the tag on the Nse6 fragment (N-terminal His(10)-Twin-Strep-3C, or C-terminal CPD-His).

In the case of Nse6 (S. cerevisiae), the binding entry in assay [1] and in assay [2] was “binds” in each case.

B1: Nse5(G56C) (protein, UniProt Q03718 1-556)
chain: MDGALINSVLYVSPRNGAHYFVELTEKHLLAFEMLNSMCLLENYDHVLLFLECQFCKSHNLAVIPFDIILVLFTLSTLSEYYKEPILRANDPYNTSRETLSRRALKLLQKYLAILKEFDSEQYNLYDLELLRCQFFLAIDTLTPKKQKWGFDRFRRTKSESGVTYRQNASVDPELDQAKTFKNPYRSYISCLEQRNTILGNRLLNLKLNEPGEFINMILWTLSNSLQESTPLFLSSHEIWMPLLEILIDLFSCRQDYFIQHEVAQNVSKSLFVQRLSESPLAVFFESLNTRNFANRFSEYVFLNCDYKLPSDNYATPVHPVYNGENTIVDTYIPTIKCSPLYKSQKSLALRRKLIGSCFKLLLRVPDGHRLITPRIVADDVIQGISRTLASFNDILQFKKFFMTENLSQESYFIPLLAEGTLSEILKDTQECVVILTLVENLSDGVSFCNEVIGLVKSKCFAFTEQCSQASYEEAVLNIEKCDVCLLVLLRYLLHLIGTEAILDAKEQLEMLHAIEKNDSGRRQWAKALNLGNDPPLLYPIVSQMFGVHDKSVIIE
As for B1, the binding result in assay [3] is on record as “binds”.

B2: Nse5 (co-expressed with tagged Nse6 truncations) (protein, UniProt Q03718 1-556)
chain: MDGALINSVLYVSPRNGAHYFVELTEKHLLAFEMLNSMCLLENYDHVLLFLECQFGKSHNLAVIPFDIILVLFTLSTLSEYYKEPILRANDPYNTSRETLSRRALKLLQKYLAILKEFDSEQYNLYDLELLRCQFFLAIDTLTPKKQKWGFDRFRRTKSESGVTYRQNASVDPELDQAKTFKNPYRSYISCLEQRNTILGNRLLNLKLNEPGEFINMILWTLSNSLQESTPLFLSSHEIWMPLLEILIDLFSCRQDYFIQHEVAQNVSKSLFVQRLSESPLAVFFESLNTRNFANRFSEYVFLNCDYKLPSDNYATPVHPVYNGENTIVDTYIPTIKCSPLYKSQKSLALRRKLIGSCFKLLLRVPDGHRLITPRIVADDVIQGISRTLASFNDILQFKKFFMTENLSQESYFIPLLAEGTLSEILKDTQECVVILTLVENLSDGVSFCNEVIGLVKSKCFAFTEQCSQASYEEAVLNIEKCDVCLLVLLRYLLHLIGTEAILDAKEQLEMLHAIEKNDSGRRQWAKALNLGNDPPLLYPIVSQMFGVHDKSVIIE
modifications: selenomethionine substituted (for the crystals)
Turning to B2, the binding entry in assay [4] is recorded as “no binding”.

Values taken from article PMC8327961, “Nse5/6 inhibits the Smc5/6 ATPase and modulates DNA substrate binding” (The EMBO Journal, 2021).
